Experimental data published in PubChem BioAssay AID272 (DTP/NCI, 2004).
The list does not hold the whole screen: it gathers some chemical classes. Other doses and runs of a compound may be missing. T/C gives the treated animals as a percentage of the vehicle group. Schedule codes are those of the source, read here as Q, the interval in days (D) or hours (H), X, the number of doses. Some T/C values are followed by the survivors on the day toxicity was checked; where neither a count nor a note follows, no animal had died by that day. Some doses have a count of surviving animals in place of a T/C: the source holds a T/C of zero for them, seemingly a mark for toxic or unscored doses. Some doses without a T/C left all or most animals alive at the check, yet need not have been tolerated: survival well below the control is almost never listed, so the zero probably covers shortened survival too. Counts of survivors are from the toxicity check (mostly the fifth day) where no day follows; animals may have died later. Counts of survivors are from the toxicity check, whose day is not always given; animals may have died later. For survival time, this PubChem deposit counts one and a half times the control or more as active, and values a quarter to a half above the control carry no call in these data; other NCI protocols may use other cut-offs. Some T/C values are followed by the survivors on the day toxicity was checked, most often the fifth; where neither a count nor a note follows, no animal had died by that day.

System: Lewis lung carcinoma i.m., BDF1 mice, T/C %
Experiment: NCI In Vivo Anticancer Drug Screen. Data for tumor model Lewis Lung Carcinoma (intramuscular) in B6D2F1 (BDF1) mice
Procedure: The antitumor activity of compounds was measured in mice bearing transplantable tumors. Survival or tumor size were measured and the results are expressed as the measurement made in the treated group (T) divided by the measurement made in the vehicle treated control group (C). The tumor model used in this assay is Lewis Lung Carcinoma (intramuscular) in B6D2F1 (BDF1) mice

N#C/C(=C\c1ccc(N(CCBr)CCBr)cc1)C(N)=O
T/C (T/C endpoint: mean tumor weight (est.), dose: 2.0 mg/kg/injection, schedule: Q01DX011 (ip), vehicle: saline with Tween-80, evaluated on day 12, higher T/C = larger tumour): 50 % of control [7 of 8 alive] | survivor count (T/C endpoint: mean tumor weight (est.), dose: 4.0 mg/kg/injection, schedule: Q01DX011 (ip), vehicle: saline with Tween-80, higher T/C = larger tumour): 1 of 8 | T/C (T/C endpoint: median survival time, dose: 1.0 mg/kg/injection, schedule: Q01DX011 (ip), vehicle: saline with Tween-80, higher T/C = longer survival): 100 % of control | survivor count (T/C endpoint: median survival time, dose: 2.0 mg/kg/injection, schedule: Q01DX011 (ip), vehicle: saline with Tween-80, higher T/C = longer survival): 7 of 8 | survivor count (T/C endpoint: median survival time, dose: 4.0 mg/kg/injection, schedule: Q01DX011 (ip), vehicle: saline with Tween-80, higher T/C = longer survival): 1 of 8 | survivor count (T/C endpoint: median survival time, dose: 8.0 mg/kg/injection, schedule: Q01DX011 (ip), vehicle: saline with Tween-80, higher T/C = longer survival): 0 of 8

ClCCNc1nc2ccc(Cl)cc2c2ccccc12
T/C (T/C endpoint: mean tumor weight (est.), dose: 5.0 mg/kg/injection, schedule: Q01DX011 (ip), vehicle: saline with Tween-80, evaluated on day 12, higher T/C = larger tumour): 57 % of control | survivor count (T/C endpoint: mean tumor weight (est.), dose: 10.0 mg/kg/injection, schedule: Q01DX011 (ip), vehicle: saline with Tween-80, higher T/C = larger tumour): 2 of 8 | T/C (T/C endpoint: median survival time, dose: 5.0 mg/kg/injection, schedule: Q01DX011 (ip), vehicle: saline with Tween-80, higher T/C = longer survival): 112 % of control | survivor count (T/C endpoint: median survival time, dose: 10.0 mg/kg/injection, schedule: Q01DX011 (ip), vehicle: saline with Tween-80, higher T/C = longer survival): 2 of 8 | survivor count (T/C endpoint: median survival time, dose: 20.0 mg/kg/injection, schedule: Q01DX011 (ip), vehicle: saline with Tween-80, higher T/C = longer survival): 0 of 8 | survivor count (T/C endpoint: median survival time, dose: 40.0 mg/kg/injection, schedule: Q01DX011 (ip), vehicle: saline with Tween-80, higher T/C = longer survival): 0 of 8

CC(Cl)CN(CC(C)Cl)C(=O)OCC(N)C(=O)O (stereo not given)
T/C (T/C endpoint: mean tumor weight, dose: 12.5 mg/kg/injection, schedule: Q01DX011 (ip), vehicle: saline, evaluated on day 12, higher T/C = larger tumour): 110 % of control | T/C (T/C endpoint: mean tumor weight, dose: 12.5 mg/kg/injection, schedule: Q01DX011 (ip), vehicle: water, evaluated on day 12, higher T/C = larger tumour): 97 % of control | T/C (T/C endpoint: mean tumor weight, dose: 25.0 mg/kg/injection, schedule: Q01DX011 (ip), vehicle: saline, evaluated on day 12, higher T/C = larger tumour): 82 % of control | T/C (T/C endpoint: mean tumor weight, dose: 25.0 mg/kg/injection, schedule: Q01DX011 (ip), vehicle: water, evaluated on day 12, higher T/C = larger tumour): 119 % of control | T/C (T/C endpoint: mean tumor weight, dose: 50.0 mg/kg/injection, schedule: Q01DX011 (ip), vehicle: saline, evaluated on day 12, higher T/C = larger tumour): 87 % of control | T/C (T/C endpoint: mean tumor weight, dose: 50.0 mg/kg/injection, schedule: Q01DX011 (ip), vehicle: water, evaluated on day 12, higher T/C = larger tumour): 99 % of control | T/C (T/C endpoint: mean tumor weight, dose: 100.0 mg/kg/injection, schedule: Q01DX011 (ip), vehicle: saline, evaluated on day 12, higher T/C = larger tumour): 82 % of control | T/C (T/C endpoint: mean tumor weight, dose: 100.0 mg/kg/injection, schedule: Q01DX011 (ip), vehicle: water, evaluated on day 12, higher T/C = larger tumour): 90 % of control | T/C (T/C endpoint: mean tumor weight, dose: 200.0 mg/kg/injection, schedule: Q01DX011 (ip), vehicle: saline, evaluated on day 12, higher T/C = larger tumour): 93 % of control | T/C (T/C endpoint: mean tumor weight, dose: 200.0 mg/kg/injection, schedule: Q01DX011 (ip), vehicle: water, evaluated on day 12, higher T/C = larger tumour): 95 % of control | T/C (T/C endpoint: mean tumor weight, dose: 400.0 mg/kg/injection, schedule: Q01DX011 (ip), vehicle: water, evaluated on day 12, higher T/C = larger tumour): 99 % of control [6 of 8 alive] | T/C (T/C endpoint: median survival time, dose: 12.5 mg/kg/injection, schedule: Q01DX010 (ip), vehicle: water, higher T/C = longer survival): 104 % of control | T/C (T/C endpoint: median survival time, dose: 12.5 mg/kg/injection, schedule: Q01DX011 (ip), vehicle: saline, higher T/C = longer survival): 116 % of control | T/C (T/C endpoint: median survival time, dose: 25.0 mg/kg/injection, schedule: Q01DX010 (ip), vehicle: water, higher T/C = longer survival): 104 % of control | T/C (T/C endpoint: median survival time, dose: 25.0 mg/kg/injection, schedule: Q01DX011 (ip), vehicle: saline, higher T/C = longer survival): 102 % of control | T/C (T/C endpoint: median survival time, dose: 50.0 mg/kg/injection, schedule: Q01DX010 (ip), vehicle: water, higher T/C = longer survival): 95 % of control | T/C (T/C endpoint: median survival time, dose: 50.0 mg/kg/injection, schedule: Q01DX011 (ip), vehicle: saline, higher T/C = longer survival): 133 % of control | T/C (T/C endpoint: median survival time, dose: 100.0 mg/kg/injection, schedule: Q01DX010 (ip), vehicle: water, higher T/C = longer survival): 114 % of control | T/C (T/C endpoint: median survival time, dose: 100.0 mg/kg/injection, schedule: Q01DX011 (ip), vehicle: saline, higher T/C = longer survival): 128 % of control | T/C (T/C endpoint: median survival time, dose: 200.0 mg/kg/injection, schedule: Q01DX010 (ip), vehicle: water, higher T/C = longer survival): 97 % of control | T/C (T/C endpoint: median survival time, dose: 200.0 mg/kg/injection, schedule: Q01DX011 (ip), vehicle: saline, higher T/C = longer survival): 102 % of control

OC(CNCCCl)C(O)C(O)C(O)CNCCCl (stereo not given)
T/C (T/C endpoint: mean tumor weight, dose: 2.5 mg/kg/injection, schedule: Q01DX011 (ip), vehicle: saline, evaluated on day 12, higher T/C = larger tumour): 99 % of control | survivor count (T/C endpoint: mean tumor weight, dose: 5.0 mg/kg/injection, schedule: Q01DX011 (ip), vehicle: saline, higher T/C = larger tumour): 5 of 8 | survivor count (T/C endpoint: mean tumor weight, dose: 10.0 mg/kg/injection, schedule: Q01DX011 (ip), vehicle: saline, higher T/C = larger tumour): 4 of 8 | survivor count (T/C endpoint: mean tumor weight, dose: 20.0 mg/kg/injection, schedule: Q01DX011 (ip), vehicle: saline, higher T/C = larger tumour): 1 of 8 | T/C (T/C endpoint: median survival time, dose: 2.5 mg/kg/injection, schedule: Q01DX011 (ip), vehicle: saline, higher T/C = longer survival): 95 % of control | survivor count (T/C endpoint: median survival time, dose: 5.0 mg/kg/injection, schedule: Q01DX011 (ip), vehicle: saline, higher T/C = longer survival): 5 of 8 | survivor count (T/C endpoint: median survival time, dose: 10.0 mg/kg/injection, schedule: Q01DX011 (ip), vehicle: saline, higher T/C = longer survival): 4 of 8 | survivor count (T/C endpoint: median survival time, dose: 20.0 mg/kg/injection, schedule: Q01DX011 (ip), vehicle: saline, higher T/C = longer survival): 1 of 8 | survivor count (T/C endpoint: median survival time, dose: 40.0 mg/kg/injection, schedule: Q01DX011 (ip), vehicle: saline, higher T/C = longer survival): 0 of 8

NP(=O)(O)N(CCCl)CCCl
T/C (T/C endpoint: mean tumor weight (est.), dose: 12.5 mg/kg/injection, schedule: Q01DX011 (ip), vehicle: water, evaluated on day 12, higher T/C = larger tumour): 74 % of control | T/C (T/C endpoint: mean tumor weight (est.), dose: 25.0 mg/kg/injection, schedule: Q01DX011 (ip), vehicle: water, evaluated on day 12, higher T/C = larger tumour): 57 % of control | T/C (T/C endpoint: mean tumor weight (est.), dose: 25.0 mg/kg/injection, schedule: Q04DX003 (ip), vehicle: saline, evaluated on day 12, higher T/C = larger tumour): 70 % of control | T/C (T/C endpoint: mean tumor weight (est.), dose: 50.0 mg/kg/injection, schedule: Q01DX011 (ip), vehicle: water, evaluated on day 12, higher T/C = larger tumour): 50 % of control [7 of 8 alive] | T/C (T/C endpoint: mean tumor weight (est.), dose: 50.0 mg/kg/injection, schedule: Q04DX003 (ip), vehicle: saline, evaluated on day 12, higher T/C = larger tumour): 74 % of control | survivor count (T/C endpoint: mean tumor weight (est.), dose: 100.0 mg/kg/injection, schedule: Q01DX011 (ip), vehicle: water, higher T/C = larger tumour): 5 of 8 | T/C (T/C endpoint: mean tumor weight (est.), dose: 100.0 mg/kg/injection, schedule: Q04DX003 (ip), vehicle: saline, evaluated on day 12, higher T/C = larger tumour): 59 % of control | T/C (T/C endpoint: mean tumor weight (est.), dose: 200.0 mg/kg/injection, schedule: Q04DX003 (ip), vehicle: saline, evaluated on day 12, higher T/C = larger tumour): 31 % of control [6 of 8 alive] | T/C (T/C endpoint: mean tumor weight, dose: 25.0 mg/kg/injection, schedule: Q04DX003 (ip), vehicle: saline, evaluated on day 12, higher T/C = larger tumour): 86 % of control | T/C (T/C endpoint: mean tumor weight, dose: 50.0 mg/kg/injection, schedule: Q04DX003 (ip), vehicle: saline, evaluated on day 12, higher T/C = larger tumour): 67 % of control | T/C (T/C endpoint: mean tumor weight, dose: 100.0 mg/kg/injection, schedule: Q04DX003 (ip), vehicle: saline, evaluated on day 12, higher T/C = larger tumour): 38 % of control | survivor count (T/C endpoint: mean tumor weight, dose: 200.0 mg/kg/injection, schedule: Q04DX003 (ip), vehicle: saline, higher T/C = larger tumour): 1 of 8 | T/C (T/C endpoint: median survival time, dose: 12.5 mg/kg/injection, schedule: Q01DX011 (ip), vehicle: water, higher T/C = longer survival): 139 % of control | T/C (T/C endpoint: median survival time, dose: 25.0 mg/kg/injection, schedule: Q01DX011 (ip), vehicle: water, higher T/C = longer survival): 122 % of control | T/C (T/C endpoint: median survival time, dose: 25.0 mg/kg/injection, schedule: Q04DX003 (ip), vehicle: saline, higher T/C = longer survival): 93 % of control | T/C (T/C endpoint: median survival time, dose: 50.0 mg/kg/injection, schedule: Q01DX011 (ip), vehicle: water, higher T/C = longer survival): 108 % of control [7 of 8 alive] | T/C (T/C endpoint: median survival time, dose: 50.0 mg/kg/injection, schedule: Q04DX003 (ip), vehicle: saline, higher T/C = longer survival): 93 % of control | survivor count (T/C endpoint: median survival time, dose: 100.0 mg/kg/injection, schedule: Q01DX011 (ip), vehicle: water, higher T/C = longer survival): 5 of 8 | T/C (T/C endpoint: median survival time, dose: 100.0 mg/kg/injection, schedule: Q04DX003 (ip), vehicle: saline, higher T/C = longer survival): 98 % of control | survivor count (T/C endpoint: median survival time, dose: 200.0 mg/kg/injection, schedule: Q04DX003 (ip), vehicle: saline, higher T/C = longer survival): 6 of 8

NC(=O)c1[nH]cnc1/N=N\N(CCCl)CCCl
T/C (T/C endpoint: mean tumor weight, dose: 25.0 mg/kg/injection, schedule: Q01DX011 (ip), vehicle: other, evaluated on day 12, higher T/C = larger tumour): 36 % of control [7 of 8 alive] | T/C (T/C endpoint: mean tumor weight, dose: 50.0 mg/kg/injection, schedule: Q01DX011 (ip), vehicle: other, evaluated on day 12, higher T/C = larger tumour): 20 % of control | T/C (T/C endpoint: mean tumor weight, dose: 100.0 mg/kg/injection, schedule: Q01DX011 (ip), vehicle: other, evaluated on day 12, higher T/C = larger tumour): 20 % of control
